Source: PubChem BioAssay AID493014 (National Center for Advancing Translational Sciences (NCATS), 2011)
Values joined by “and” are separate entries in the source; they are usually repeats but may differ in a detail not shown here. Equal values may be shown once. The list shows a part of the results. Further columns of the screen follow, without active or inactive calls. Most of these compounds were active or inconclusive in the main read-out, so they are no random draw. Potencies come from curve fits of mixed quality, noted in brackets.

Assay: qHTS Assay to Find Inhibitors of Chronic Active B-Cell Receptor Signaling
Conditions: ABC-DLBCL IkBa-CBG/CBR reporter, luminescence ratio (green luciferase fused to IkBa over red control in TMD8 lymphoma cells), 4 h
In short: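 TMD8 ABC-DLBCL cells carrying doxycycline-inducible green luciferase fused to IkappaBalpha plus unfused red luciferase were exposed to compounds (up to 46 uM) for 4 hrs at 37C. Activity came from the overlap-corrected green/red luminescence ratio.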

[1] = measured here: CBR red luminescence, cell number
[2] = measured here: IkBa-CBG green luminescence

Row | SMILES | AC50 [1] | AC50 [2]
1 | Cc1cc(NC(=O)CCN2C(=O)/C(=C\c3ccccc3Cl)SC2=S)no1 | 0.447 µM [falling, full curve, poor fit] | –
2 | CC(=O)Nc1ccc(CN2CCC(Oc3ccc(C(=O)N4CCCC4)cc3)CC2)cc1 | 35.5 µM [rising, single point] | –
3 | CCN1CCN(Cc2ccc(NC(=O)c3ccc(C)c(/C=C/c4cnc(Nc5cc(N6CCNCC6)nc(C)n5)cn4)c3)cc2C(F)(F)F)CC1 | 11.2 µM [falling, partial curve] | –
4 | c1ccc(NNC2=NCCS2)cc1 | 10 µM [rising, partial curve, poor fit] | –
5 | CCCCCCN1Cc2ccccc2C1 | 11.2 µM [rising, partial curve] | –
6 | Cn1c(SCC(=O)c2ccccc2)nnc1-c1ccc(O)cc1 | 29.1 µM [falling, single point] | 32.6 µM [rising, partial curve, poor fit]
7 | O=C(NCc1ccc2c(c1)OCO2)c1sccc1Br | 3.16 µM [falling, single point] | –
8 | Cc1ccc(Cl)c(NC(=O)CN(C)CC(=O)Nc2ccc(F)c(F)c2F)c1Cl | 2.51 µM [rising, partial curve, poor fit] | –
9 | CCc1ccc(CNC(=O)C2CCCN(c3nnc(C)c4c(C)n(-c5ccccc5)nc34)C2)cc1 (centres undefined) | 14.1 µM [falling, single point] | –
10 | Oc1ccc(/C=N/n2c(C3CCCCC3)n[nH]c2=S)c(O)c1 | 35.5 µM [rising, single point] | –
11 | C/C(=N\Nc1nc(C)cc(-c2ccccc2)n1)c1cccc(N)c1 | 12.6 µM [falling, partial curve] | –
12 | COc1ccc(Nc2ncnc3ccc(Br)cc23)c(OC)c1 | 4.47 µM [falling, partial curve, poor fit] | –
13 | Cc1ccc(C(=O)N/N=C/c2nc3ccccc3n2C)cc1 | 1 µM [rising, full curve] | –
14 | COc1ccccc1NC(=O)c1cc(Br)ccc1Cl | 22.4 µM [rising, single point] | –
15 | CN(c1ccccc1)c1nc(N)c([N+](=O)[O-])c(N2CCCC2)n1 | 35.5 µM [rising, single point] | –
16 | COc1ccc(N/C=C(\C#N)c2ccc(OCCCF)cc2)cc1 | 6.51 µM [falling, single point] | –
17 | CC(C)(C)NC(=O)COC(=O)/C=C/c1ccccc1[N+](=O)[O-] | 16.4 µM [rising, single point] | –
18 | CN(C)c1nc(N)nc(CSc2n[nH]c(-c3ccccc3)n2)n1 | 2.59 µM [rising, partial curve, poor fit] | –
19 | N#Cc1nc(COc2ccc(Cl)cc2)oc1N1CCCC1 | 17.8 µM [rising, single point] | –
20 | CN(CC(=O)Nc1n[nH]c(=S)s1)S(=O)(=O)c1cccc2cccnc12 | 31.6 µM [rising, single point] | –
21 | Cc1cc(NCCCn2ccnc2)n2ncc(-c3ccccc3)c2n1 | 15.8 µM [falling, single point] | –

Gathered by group, those above containing bromine (three)
Row | SMILES | AC50 [1] | AC50 [2]
7 | O=C(NCc1ccc2c(c1)OCO2)c1sccc1Br | 3.16 µM [falling, single point] | –
12 | COc1ccc(Nc2ncnc3ccc(Br)cc23)c(OC)c1 | 4.47 µM [falling, partial curve, poor fit] | –
14 | COc1ccccc1NC(=O)c1cc(Br)ccc1Cl | 22.4 µM [rising, single point] | –

Later entries

Row | SMILES | AC50 [1] | AC50 [2]
22 | C(=N\Nc1nc(Nc2ccccc2)nc(N2CCCCC2)n1)/c1ccco1 | 35.5 µM [falling, single point] | –
23 | Cc1ccc(-n2c(-c3ccc(Br)cc3)c[n+]3c2CCc2ccc4cccnc4c2-3)cc1 | 15.8 µM [falling, single point] | –
24 | O=C(Nc1cccc2ccccc12)c1onc2c1CCCC2 | 0.058 µM [falling, full curve, poor fit] | –
25 | O=C(Nc1ccccc1Cl)C(=O)c1cn(CC(=O)N2CCOCC2)c2ccccc12 | 0.282 µM [falling, full curve, poor fit] | –
26 | O=C(CSCc1ccccc1)Nc1cccc(C(=O)Nc2ccccc2C(=O)O)c1 | 35.5 µM [falling, single point] | –
27 | COC(=O)[C@@]1(Cc2ccc(F)cc2)[C@H]2c3cc(C(=O)N(C)C)n(Cc4ccc(OC(F)(F)F)cc4)c3C[C@H]2CN1C(=O)c1ccccc1 | 23.1 µM [falling, single point] | –
28 | CCCCOc1ccc(C(C)NC(=O)CN2C(=O)CSc3ccc(S(=O)(=O)N4CCOCC4)cc32)cc1 (centres undefined) | 0.562 µM [rising, full curve, poor fit] | –
29 | CN(C)S(=O)(=O)c1ccc(C(=O)Nc2cccnc2)cc1 | 9.2 µM [rising, single point] | –
30 | CN(C(=O)c1ccccc1C(=O)OCC(=O)NC(=O)NC(C)(C)C)C1CCCCC1 | 35.5 µM [rising, single point] | –
31 | CSCCC(NC(=O)c1ccc(Cl)cc1)C(=O)OCC(=O)c1ccc[nH]1 (centres undefined) | 20.6 µM [rising, partial curve, poor fit] | –
32 | COc1ccc(C(=O)OCC(=O)N2CCc3ccccc3C2)cc1OC | 23.1 µM [rising, single point] | –
33 | CCOC(=O)c1ccc(C(=O)NNC(=O)C2C3C=CC(C3)C2C(=O)O)cc1 (centres undefined) | 5.01 µM [falling, full curve, poor fit] | –
34 | Cc1ccc(-n2cccc2/C=C2/NC(=O)N(CC(=O)Nc3cccc(C)c3)C2=O)cc1 | 32.6 µM [rising, partial curve, poor fit] | –
35 | Cc1ccc2oc(C(=O)N(C)CCC(O)c3ccccc3)c(C)c2c1 (centres undefined) | 3.98 µM [rising, partial curve, poor fit] | –
36 | Cc1cccc(CNc2ncnc3ccc(-c4ccc5c(c4)OCO5)cc23)c1 | 20.6 µM [falling, partial curve, poor fit] and 14.6 µM [falling, partial curve] | –
37 | CC1Cc2nc(SCC(=O)Nc3nc4ccccc4s3)n(C)c(=O)c2S1 (centres undefined) | 32.6 µM [falling, single point] | –
38 | CCOc1ccc(CCNC(=O)CCc2nc(-c3ccc(OC)cc3)no2)cc1OCC | 20.6 µM [rising, single point] | –
39 | COc1ccccc1/C=N/n1c(N)c(S(=O)(=O)c2cccs2)c2nc3ccccc3nc21 | 32.6 µM [rising, single point] | –
40 | Fc1ccc2[nH]c3c(N4CCN(Cc5ccc6c(c5)OCO6)CC4)ncnc3c2c1 | 35.5 µM [falling, single point] | –
41 | Fc1ccc(-c2csc(/C=C/c3ccc4c(c3)OCO4)n2)cc1 | 0.326 µM [rising, full curve, poor fit] | –
42 | O=C1COc2ccccc2N1Cc1c(F)cccc1Cl | 20 µM [rising, partial curve, poor fit] | –

Row | SMILES | AC50 [1] | AC50 [2]
43 | O=C(COc1ccccc1)Nc1cccc2c1CCCC2 | 3.98 µM [rising, partial curve, poor fit] | –
44 | COc1ccccc1NC(=O)Cn1cc(C#N)c2ccccc21 | 3.26 µM [falling, single point] | –
45 | O=C(N/N=C/c1cn(-c2ccccc2)nc1-c1cc2ccccc2o1)c1ccccc1Br | 0.651 µM [rising, full curve, poor fit] | –
46 | Cc1cccc(C(=O)Nc2cccc(C(=O)N/N=C/c3ccc4c(c3)OCO4)c2)c1 | 3.16 µM [falling, partial curve] | –
47 | CSC1=NCCN1C(=O)C12CC3CC(CC(C3)C1)C2 | 5.62 µM [falling, single point] | –
48 | CC1(C)C(C#N)=C(N)Oc2c1c(=O)oc1ccccc21 | 0.562 µM [falling, full curve, poor fit] | –
49 | O=C(NCCCCc1ccccc1)c1ccc(Br)cc1 | 3.55 µM [rising, full curve] | –
50 | CCN1CCN(C(=S)Nc2ccc([N+](=O)[O-])cc2)CC1 | 18.4 µM [rising, single point] | –
51 | CC1CC(=O)c2cnc(Nc3ccccc3)nc2C1 (centres undefined) | 11.6 µM [falling, partial curve] | –
52 | COc1ccc(NC(=O)C(Sc2nnc(-c3ccncc3)n2-c2ccccc2C)c2ccccc2)cc1Cl (centres undefined) | 14.6 µM [rising, single point] | –
53 | CCc1ccc(C(=O)CSc2nc(C)cc(=O)[nH]2)cc1 | 3.98 µM [rising, full curve, poor fit] | –
54 | CC(=O)N1CCc2c(sc(NC(=O)C3CCCN3S(=O)(=O)c3cccs3)c2C#N)C1 (centres undefined) | 20.6 µM [rising, partial curve, poor fit] | –
55 | COc1ccc([N+](=O)[O-])cc1NS(=O)(=O)c1cc(C(=O)NCc2cccnc2)ccc1Cl | 29.1 µM [rising, partial curve, poor fit] | –
56 | COc1ccc(C2c3c(oc4ccccc4c3=O)C(=O)N2c2ccc(C)cn2)cc1OC (centres undefined) | 4.11 µM [rising, partial curve, poor fit] | –
57 | COc1cc2cnc(-c3ccccc3)c(C(=O)c3ccc(OCc4ccccc4)cc3)c2cc1OC | 6.51 µM [rising, partial curve, poor fit] | –
58 | Cc1c(C(=O)Nc2ccc3c(c2)OCCO3)sc2nc(-c3ccccc3)cn12 | 29.1 µM [falling, single point] | 11.6 µM [rising, partial curve, poor fit]
59 | Cc1cccc(N2CCN(C(=O)c3ccc4nc(-c5ccco5)c(-c5ccco5)nc4c3)CC2C)c1 (centres undefined) | 12.6 µM [falling, partial curve, poor fit] | –
60 | O=C(NCCCC1CCCC1)C1CCC(=O)N(Cc2cccc(C(F)(F)F)c2)C1 (centres undefined) | 11.2 µM [falling, partial curve] | –
61 | O=C(N/N=C/c1cccs1)c1n[nH]c2c1CCCC2 | 4.47 µM [falling, partial curve] | –
62 | Cc1cccc(/C=N\N=C\c2cccc(C)c2)c1 | 11.2 µM [rising, partial curve, poor fit] | –

Taken from above:
In AC50 [1], Cc1cccc(N2CCN(C(=O)c3ccc4nc(-c5ccco5)c(-c5ccco5)nc4c3)CC2C)c1 (centres undefined) is entered as 12.6 µM [falling, partial curve, poor fit]
In AC50 [1], CCN1CCN(C(=S)Nc2ccc([N+](=O)[O-])cc2)CC1 is entered as 18.4 µM [rising, single point]
